This continues a long series; more values of the same kind are listed elsewhere.
Tested on: PBMC of RRMS patients
Experiment: Gene expression microarray analysis (HG-U133A-2) of PBMC from RRMS patients treated with LAQ, ancillary study to ALLEGRO
Assay type: in vivo, human
Excerpt: The goal of this ancillary study was to characterize gene expression changes and corresponding biological mechanisms induced in PBMC of RRMS patients by LAQ treatment. According to ALLEGRO clinical trial inclusion criteria, 25 patients were randomly assigned to receive LAQ (n=13, age 38.8±2.3 years, female/male ratio: 8/5) or placebo (n=12, age 37.2±3.4 years, female/male ratio: 8/4).
Peripheral blood samples were obtained from RRMS patients at baseline before start of LAQ treatment or placebo, after 0, 1, 6 and 24 month of treatment (visit 0, 1, 6 and 7 according to ALLEGRO clinical trial protocol correspondently) for gene microarray analysis.
Briefly, 1) Peripheral blood mononuclear cells (PBMC) were obtained from RRMS patients that participated in ALLEGRO and were treated daily with 0.6 mg LAQ or placebo. PBMC were subjected for gene expression analysis (HU-133A-2-Affymatrix arrays) at baseline and at 1 and 6 months of LAQ treatment; 2) Data was analyzed by Partek Genomics Solution software. Most informative genes (MIGs) were defined as those that differentiated between groups with p<0.01. Gene functional annotation, enrichment and pathway analysis were performed by Ingenuity software. For each time point, genes that changed in placebo group were excluded from further analysis; and 3) Verification of LAQ related mechanism was performed by Western blot.
PBMC were extracted from 15 ml peripheral blood, separated by Ficoll-Hypaque gradient. Total RNA was extracted using both Trizol (Invitrogen, USA) and Phase-Lock-Gel columns (Eppendorf, Germany) including a DNase digestion step. RNA integrity was assessed by RNA Experion automated electrophoresis system (Bio-Rad Laboratories, Hercules, Calif.).
Probe synthesis using 3 μg total RNA, hybridization, detection, and scanning was performed according to the standard Affymetrix, Inc. USA protocols; cDNA was synthesized using the Two-Cycle cDNA Synthesis Kit (Affymetrix, Inc., USA), and in-vitro transcription performed with the GeneChip IVT Labeling Kit (Affymetrix, Inc., USA). The biotin-labeled IVT-RNA was hybridized to HG-U133A-2 arrays containing 18,400 gene transcripts, each corresponding to 14,500 well-annotated human genes, washed in a GeneChip Fluidics Station 450 (Hewlett Packard, USA, GeneArray-™ scanner G2500A) and scanned according to the manufacturer's protocol (Affymetrix, Inc., USA).
Data analysis was performed on Partek Genomics Solution software (www.partek.com; Partek Incorporated, St. Louis, Mo.). Expression values were computed from raw CEL files by applying the Robust Multi-Chip Average (RMA) background correction algorithm. RMA correction included: 1) values background correction; 2) quintile normalization; 3) log 2 transformation; and 4) median polish summarization. The ANOVA, Repeated Measures and correlation analysis implicated in Partek software ware applied to evaluate LAQ effects. Most informative genes MIGs were defined as those that differentiated between experimental groups with p<0.01. All p-values were calculated for False Discovery Rate (FDR) multiple test correction at p=0.05.
Additionally, significance of individual genes was tested by parametric T-test and non parametric Mann-Whitney test using Bootstrapping approach based on repeated permutations of the data with 5% FDR for multiple testing.
Gene functional annotation, enrichment, and pathway analyses to identify the leading biological pathways that operated under LAQ treatment were performed by Ingenuity Pathways Analysis software (www.ingenuity.com).
ANOVA analysis was used to compare PBMC gene expression after 1, 6 or 24 month of LAQ treatment with baseline gene expression.
For each time point inventors performed analysis source of variation in dataset. (FIG. 1). Age, gender and batch effects were considered as confounders regarding LAQ or Placebo related changes. For each time point genes associated with Placebo effect were evaluated and excluded from further analysis. […]

With `CCN(C(=O)c1c(O)c2c(Cl)cccc2n(C)c1=O)c1ccccc1` [LAQ, 5-chloro-N-ethyl-4-hydroxy-1-methyl-2-oxo-N-phenyl-1,2-dihydroquinoline-3-carboxamide] the “Fold-Change (4.0 vs. 0.0)” value (gene HAS2, PBMC, six months of LAQ treatment) was −1.117, the “Fold-Change (4.0 vs. 0.0)” value (gene HBBP1) was −1.195 and the “Fold-Change (4.0 vs. 0.0)” value (gene HCN2, six months of treatment) was −1.155. The “Fold-Change (4.0 vs. 0.0)” value (gene HES2, six months of treatment) was −1.158, the “Fold-Change (4.0 vs. 0.0)” value (gene HFE, after six months of LAQ) was −1.266 and the “Fold-Change (4.0 vs. 0.0)” value (gene HFE, six months of treatment) was −1.151. For the same molecule, the “Fold-Change (4.0 vs. 0.0)” value (gene HGC6.3, six months of treatment) was −1.157, the “Fold-Change (4.0 vs. 0.0)” value (gene HGF, after six months of LAQ) was −1.319 and the “Fold-Change (4.0 vs. 0.0)” value (gene HIP1R /// LOC100294412, after six months of LAQ) was −1.2794. For the same molecule, the “Fold-Change (4.0 vs. 0.0)” value (gene HIST1H2BN, after six months of LAQ) was −1.138, the “Fold-Change (4.0 vs. 0.0)” value (gene HMHB1, six months of treatment) was −1.144 and the “Fold-Change (4.0 vs. 0.0)” value (gene HNRNPC /// HNRNPCL1 /// LOC440563 /// LOC649330, after six months of LAQ) was −1.24. The “Fold-Change (4.0 vs. 0.0)” value (gene HOMER2, after six months of LAQ) was −1.14, the “Fold-Change (4.0 vs. 0.0)” value (gene HOXA10, after six months of LAQ) was −1.303 and the “Fold-Change (4.0 vs. 0.0)” value (gene HOXC10, six months of treatment) was −1.153. The “Fold-Change (4.0 vs. 0.0)” value (gene HOXC13, after six months of LAQ) was −1.228, the “Fold-Change (4.0 vs. 0.0)” value (gene HOXD13, PBMC, six months of LAQ treatment) was −1.114 and the “Fold-Change (4.0 vs. 0.0)” value (gene HPR, PBMC, six months of LAQ treatment) was −1.118. The “Fold-Change (4.0 vs. 0.0)” value (gene HR44, PBMC, six months of LAQ treatment) was −1.114, the “Fold-Change (4.0 vs. 0.0)” value (gene HRH1, after six months of LAQ) was −1.235 and the “Fold-Change (4.0 vs. 0.0)” value (gene HS3ST3A1, PBMC, six months of LAQ treatment) was −1.107. The “Fold-Change (4.0 vs. 0.0)” value (gene HSD17B14) was −1.193, the “Fold-Change (4.0 vs. 0.0)” value (gene HSF4, six months of treatment) was −1.155 and the “Fold-Change (4.0 vs. 0.0)” value (gene HTR2A, after six months of LAQ) was −1.141. The “Fold-Change (4.0 vs. 0.0)” value (gene HTR4, after six months of LAQ) was −1.2378, the “Fold-Change (4.0 vs. 0.0)” value (gene HTR5A, after six months of LAQ) was −1.1409 and the “Fold-Change (4.0 vs. 0.0)” value (gene HTR7) was −1.188. The “Fold-Change (4.0 vs. 0.0)” value (gene HTR7P, after six months of LAQ) was −1.135, the “Fold-Change (4.0 vs. 0.0)” value (gene IBSP) was −1.187 and the “Fold-Change (4.0 vs. 0.0)” value (gene ICHG1) was −1.1939. For the same molecule, the “Fold-Change (4.0 vs. 0.0)” value (gene IDUA) was −1.194, the “Fold-Change (4.0 vs. 0.0)” value (gene IDUA, six months of treatment) was −1.156 and the “Fold-Change (4.0 vs. 0.0)” value (gene IFNA4, six months of treatment) was −1.153. For the same molecule, the “Fold-Change (4.0 vs. 0.0)” value (gene IFNA8, PBMC, six months of LAQ treatment) was −1.1136, the “Fold-Change (4.0 vs. 0.0)” value (gene IFNA10, after six months of LAQ) was −1.143 and the “Fold-Change (4.0 vs. 0.0)” value (gene IFNW1, six months of treatment) was −1.15. The “Fold-Change (4.0 vs. 0.0)” value (gene IGH@ /// IGHD /// IGHG1 /// IGHM /// LOC100289944 /// VSIG6) was −1.191, the “Fold-Change (4.0 vs. 0.0)” value (gene IGHG1, six months of treatment) was −1.155 and the “Fold-Change (4.0 vs. 0.0)” value (gene IKBKG, six months of treatment) was −1.149. The “Fold-Change (4.0 vs. 0.0)” value (gene IL5RA, after six months of LAQ) was −1.13, the “Fold-Change (4.0 vs. 0.0)” value (gene IL9, after six months of LAQ) was −1.128 and the “Fold-Change (4.0 vs. 0.0)” value (gene IL11, six months of treatment) was −1.157. For the same molecule, the “Fold-Change (4.0 vs. 0.0)” value (gene IL12B, after six months of LAQ) was −1.128, the “Fold-Change (4.0 vs. 0.0)” value (gene IL13RA2, six months of treatment) was −1.147 and the “Fold-Change (4.0 vs. 0.0)” value (gene IL20RA, after six months of LAQ) was −1.124. For the same molecule, the “Fold-Change (4.0 vs. 0.0)” value (gene INPP5J, after six months of LAQ) was −1.129, the “Fold-Change (4.0 vs. 0.0)” value (gene IRS4, PBMC, six months of LAQ treatment) was −1.121 and the “Fold-Change (4.0 vs. 0.0)” value (gene ITGA2, six months of treatment) was −1.155. For the same molecule, the “Fold-Change (4.0 vs. 0.0)” value (gene ITGB3, after six months of LAQ) was −1.237, the “Fold-Change (4.0 vs. 0.0)” value (gene ITGB5, after six months of LAQ) was −1.5805 and the “Fold-Change (4.0 vs. 0.0)” value (gene ITGB6, six months of treatment) was −1.1581. The “Fold-Change (4.0 vs. 0.0)” value (gene ITGBL1, six months of treatment) was −1.144, the “Fold-Change (4.0 vs. 0.0)” value (gene ITIH1, six months of treatment) was −1.154 and the “Fold-Change (4.0 vs. 0.0)” value (gene ITSN1, six months of treatment) was −1.148. The “Fold-Change (4.0 vs. 0.0)” value (gene ITSN2, PBMC, six months of LAQ treatment) was −1.118, the “Fold-Change (4.0 vs. 0.0)” value (gene ITSN2, after six months of LAQ) was −1.129 and the “Fold-Change (4.0 vs. 0.0)” value (gene KALRN, six months of treatment) was −1.145. The “Fold-Change (4.0 vs. 0.0)” value (gene KANK2, after six months of LAQ) was −1.238, the “Fold-Change (4.0 vs. 0.0)” value (gene KBTBD10, after six months of LAQ) was −1.123 and the “Fold-Change (4.0 vs. 0.0)” value (gene KCNJ5, after six months of LAQ) was −1.139. The “Fold-Change (4.0 vs. 0.0)” value (gene KCNJ8, six months of treatment) was −1.159, the “Fold-Change (4.0 vs. 0.0)” value (gene KCNJ12, after six months of LAQ) was −1.259 and the “Fold-Change (4.0 vs. 0.0)” value (gene KCNK2, six months of treatment) was −1.159. The “Fold-Change (4.0 vs. 0.0)” value (gene KCNMA1, PBMC, six months of LAQ treatment) was −1.122, the “Fold-Change (4.0 vs. 0.0)” value (gene KCNQ2, after six months of LAQ) was −1.227 and the “Fold-Change (4.0 vs. 0.0)” value (gene KCNS3, six months of treatment) was −1.161. The “Fold-Change (4.0 vs. 0.0)” value (gene KCNV2, after six months of LAQ) was −1.141, the “Fold-Change (4.0 vs. 0.0)” value (gene KDELR2, after six months of LAQ) was −1.244 and the “Fold-Change (4.0 vs. 0.0)” value (gene KDR, after six months of LAQ) was −1.131. The “Fold-Change (4.0 vs. 0.0)” value (gene KIAA0195, after six months of LAQ) was −1.282, the “Fold-Change (4.0 vs. 0.0)” value (gene KIAA0892, after six months of LAQ) was −1.226 and the “Fold-Change (4.0 vs. 0.0)” value (gene KIAA1199, six months of treatment) was −1.146. For the same molecule, the “Fold-Change (4.0 vs. 0.0)” value (gene KIAA1466, after six months of LAQ) was −1.39, the “Fold-Change (4.0 vs. 0.0)” value (gene KIAA1644, six months of treatment) was −1.144 and the “Fold-Change (4.0 vs. 0.0)” value (gene KIF1A) was −1.177. For the same molecule, the “Fold-Change (4.0 vs. 0.0)” value (gene KIF5A, six months of treatment) was −1.145, the “Fold-Change (4.0 vs. 0.0)” value (gene KIF18A, six months of treatment) was −1.146 and the “Fold-Change (4.0 vs. 0.0)” value (gene KIR2DL1 /// KIR2DL2 /// KIR2DL3 /// KIR2DL5A /// KIR2DL5B /// KIR2DS1 /// KIR2DS2 /// KIR2DS3 /// KIR2DS4 /// KIR2DS5 /// KIR3DL2 /// KIR3DL3 /// KIR3DP1 /// LOC727787) was −1.1878. For the same molecule, the “Fold-Change (4.0 vs. 0.0)” value (gene KRT17, after six months of LAQ) was −1.122, the “Fold-Change (4.0 vs. 0.0)” value (gene KRT19, PBMC, six months of LAQ treatment) was −1.115 and the “Fold-Change (4.0 vs. 0.0)” value (gene KRT20, PBMC, six months of LAQ treatment) was −1.104. The “Fold-Change (4.0 vs. 0.0)” value (gene KRTAP1-1, six months of treatment) was −1.153.

— patent US20160201132A1, “GENE EXPRESSION BIOMARKERS OF LAQUINIMOD RESPONSIVENESS” (Teva Pharmaceutical Industries Ltd., priority 2013, published 2016)
